No constants are given. Whether binding was seen depends on the method and setting. In cells and extracts the contact can be indirect. Some results given as binding are weak or reduced against the parent protein; the word gives no strength. Sequences can lack the tags named with a protein.

The chains behind the UniProt entries cited, without tags or fusion partners. Where a name states a change or a piece, a line headed by the entry shows the natural chain unless it says otherwise. A line that says so, or that is headed by a name, gives the form on record, which may keep a tag or linker.
UniProt Q15286: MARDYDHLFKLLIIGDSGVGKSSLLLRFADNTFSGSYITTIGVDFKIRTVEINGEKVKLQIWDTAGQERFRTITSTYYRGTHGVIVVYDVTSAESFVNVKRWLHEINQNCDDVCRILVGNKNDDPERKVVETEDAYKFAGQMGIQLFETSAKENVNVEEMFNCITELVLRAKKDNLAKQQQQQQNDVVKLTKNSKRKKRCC
GFP-Rab35 QL (Q15286, form named): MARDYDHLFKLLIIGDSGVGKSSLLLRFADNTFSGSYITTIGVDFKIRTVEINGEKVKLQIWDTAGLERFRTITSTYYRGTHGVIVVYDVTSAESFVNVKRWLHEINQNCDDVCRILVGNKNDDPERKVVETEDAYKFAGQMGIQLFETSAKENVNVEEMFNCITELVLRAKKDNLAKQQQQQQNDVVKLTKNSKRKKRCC

This experiment addresses T1, Flag-DENND2B FL (UniProt P78524).
T1 sequence: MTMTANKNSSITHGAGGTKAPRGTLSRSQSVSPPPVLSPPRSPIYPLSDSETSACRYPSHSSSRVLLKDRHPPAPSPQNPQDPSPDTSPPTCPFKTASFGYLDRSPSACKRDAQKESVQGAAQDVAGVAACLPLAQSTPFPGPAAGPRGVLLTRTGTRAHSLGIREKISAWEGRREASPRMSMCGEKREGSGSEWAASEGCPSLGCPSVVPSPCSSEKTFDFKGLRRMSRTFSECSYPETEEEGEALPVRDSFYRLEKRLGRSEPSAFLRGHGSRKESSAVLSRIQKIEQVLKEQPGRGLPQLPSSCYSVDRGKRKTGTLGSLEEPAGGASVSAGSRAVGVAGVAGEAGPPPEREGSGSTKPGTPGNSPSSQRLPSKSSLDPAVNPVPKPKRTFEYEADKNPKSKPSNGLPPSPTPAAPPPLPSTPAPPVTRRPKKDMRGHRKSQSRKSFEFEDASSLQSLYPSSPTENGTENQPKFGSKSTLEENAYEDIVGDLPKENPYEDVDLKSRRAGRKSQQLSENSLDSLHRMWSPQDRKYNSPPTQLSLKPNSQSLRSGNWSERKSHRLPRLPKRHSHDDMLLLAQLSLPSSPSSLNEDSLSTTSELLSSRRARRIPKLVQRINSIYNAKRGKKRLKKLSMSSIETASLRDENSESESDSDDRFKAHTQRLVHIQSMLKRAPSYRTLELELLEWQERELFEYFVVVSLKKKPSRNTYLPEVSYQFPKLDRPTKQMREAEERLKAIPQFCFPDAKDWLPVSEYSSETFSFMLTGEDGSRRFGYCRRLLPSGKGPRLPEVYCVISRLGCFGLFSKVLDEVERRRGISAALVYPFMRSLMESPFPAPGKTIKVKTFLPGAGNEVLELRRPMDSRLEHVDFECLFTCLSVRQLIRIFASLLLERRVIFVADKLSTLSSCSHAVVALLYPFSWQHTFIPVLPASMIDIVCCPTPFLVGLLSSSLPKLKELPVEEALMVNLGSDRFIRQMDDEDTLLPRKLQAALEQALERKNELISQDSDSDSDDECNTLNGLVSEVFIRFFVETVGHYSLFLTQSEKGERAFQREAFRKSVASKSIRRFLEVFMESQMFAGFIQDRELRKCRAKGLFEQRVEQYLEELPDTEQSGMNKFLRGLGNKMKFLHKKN
Kind of experiment: co-IP.

For the substance “GFP-Rab35 QL (from UniProt Q15286 1-201)”, the binding result is recorded as “binds”.

(Values after publication doi:10.1101/2023.01.12.523789.)
